The target of test [1] is T1, PUX10–GFP (Arabidopsis thaliana) (UniProt Q9M0N1).
T1 sequence: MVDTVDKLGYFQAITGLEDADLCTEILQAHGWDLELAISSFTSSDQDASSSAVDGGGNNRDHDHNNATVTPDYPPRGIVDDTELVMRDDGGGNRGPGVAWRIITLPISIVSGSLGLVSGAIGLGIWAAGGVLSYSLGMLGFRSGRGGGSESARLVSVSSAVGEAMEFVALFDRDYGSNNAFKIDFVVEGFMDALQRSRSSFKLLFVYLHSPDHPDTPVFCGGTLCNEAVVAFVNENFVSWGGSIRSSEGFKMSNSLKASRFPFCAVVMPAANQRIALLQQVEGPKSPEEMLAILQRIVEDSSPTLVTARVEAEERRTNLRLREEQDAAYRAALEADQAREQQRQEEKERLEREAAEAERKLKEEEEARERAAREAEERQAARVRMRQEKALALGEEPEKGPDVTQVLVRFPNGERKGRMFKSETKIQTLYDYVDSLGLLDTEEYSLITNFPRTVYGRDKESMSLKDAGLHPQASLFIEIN
Nature of the test: FRET or BRET; sensitized emission FRET (FRET-SE) between PUX10-GFP and MCA-II-a-tagRFP in root epidermal cells; mock or 50 μM MG132. A general note: Bioluminescence resonance energy transfer reports proximity on the nanometre scale.

Test [2] concerns the target T1, PUX10–GFP (Arabidopsis thaliana). Nature of the test: proximity ligation; in vivo PLA (Duolink) in epidermal cells of the root meristem of stable Arabidopsis lines; α-FLAG or α-RFP with α-CDC48a or α-GFP; < 40 nm distance.

Results are given in words; binding and its absence hold for the method and conditions named. Binding seen in cells or lysates may run through a third protein. Binding calls can cover weak binding; strength is not graded here. Sequences can lack the tags named with a protein.

For “HF-MCA-II-a-tagRFP (Arabidopsis thaliana) (enzyme)”, the binding result in test [1] and in test [2] was “binds” throughout.

The values are drawn from paper PMC11310522.
